From article PMC4055699 come the findings set out here.

Sequences of proteins named here, by UniProt entry; tags and fusion partners are left off. Residues count along the entry.
UniProt Q8TEQ6: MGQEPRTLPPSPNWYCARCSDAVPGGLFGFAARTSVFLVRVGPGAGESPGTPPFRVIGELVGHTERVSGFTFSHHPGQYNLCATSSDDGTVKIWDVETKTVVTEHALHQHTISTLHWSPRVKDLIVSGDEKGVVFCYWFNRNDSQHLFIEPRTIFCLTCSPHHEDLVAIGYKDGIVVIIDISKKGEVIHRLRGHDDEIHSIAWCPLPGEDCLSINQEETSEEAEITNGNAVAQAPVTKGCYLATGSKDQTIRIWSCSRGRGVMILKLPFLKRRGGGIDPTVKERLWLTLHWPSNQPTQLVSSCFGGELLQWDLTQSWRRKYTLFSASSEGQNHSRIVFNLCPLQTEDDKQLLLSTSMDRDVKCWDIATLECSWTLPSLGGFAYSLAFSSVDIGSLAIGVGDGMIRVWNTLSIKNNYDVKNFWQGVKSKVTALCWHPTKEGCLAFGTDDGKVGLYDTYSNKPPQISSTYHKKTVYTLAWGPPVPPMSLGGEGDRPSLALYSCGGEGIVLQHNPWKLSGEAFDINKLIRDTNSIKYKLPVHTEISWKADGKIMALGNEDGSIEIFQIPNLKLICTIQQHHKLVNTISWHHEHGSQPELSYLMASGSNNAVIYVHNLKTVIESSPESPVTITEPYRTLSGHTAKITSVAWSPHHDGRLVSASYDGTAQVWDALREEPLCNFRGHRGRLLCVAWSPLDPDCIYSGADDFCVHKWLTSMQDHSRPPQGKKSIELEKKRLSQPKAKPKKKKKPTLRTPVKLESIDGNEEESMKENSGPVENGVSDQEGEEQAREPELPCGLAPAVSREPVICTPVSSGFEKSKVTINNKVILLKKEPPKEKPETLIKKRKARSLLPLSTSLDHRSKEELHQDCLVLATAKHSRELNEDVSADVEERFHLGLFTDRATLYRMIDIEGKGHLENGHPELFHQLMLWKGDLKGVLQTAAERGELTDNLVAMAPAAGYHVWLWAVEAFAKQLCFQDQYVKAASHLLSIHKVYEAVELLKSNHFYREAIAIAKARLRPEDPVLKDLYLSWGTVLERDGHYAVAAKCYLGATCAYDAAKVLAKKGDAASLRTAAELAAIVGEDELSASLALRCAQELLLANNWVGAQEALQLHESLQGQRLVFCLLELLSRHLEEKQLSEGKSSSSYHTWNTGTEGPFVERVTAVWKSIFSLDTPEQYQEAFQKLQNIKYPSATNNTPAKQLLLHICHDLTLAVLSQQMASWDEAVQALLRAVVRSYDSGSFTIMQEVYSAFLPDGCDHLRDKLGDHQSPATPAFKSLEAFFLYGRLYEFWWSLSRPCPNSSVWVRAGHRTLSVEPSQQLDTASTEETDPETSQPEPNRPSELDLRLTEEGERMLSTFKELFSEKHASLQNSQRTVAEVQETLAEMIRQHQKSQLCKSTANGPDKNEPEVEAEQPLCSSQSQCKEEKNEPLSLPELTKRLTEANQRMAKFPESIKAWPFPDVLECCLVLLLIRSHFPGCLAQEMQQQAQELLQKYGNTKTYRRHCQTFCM
UniProt Q16637: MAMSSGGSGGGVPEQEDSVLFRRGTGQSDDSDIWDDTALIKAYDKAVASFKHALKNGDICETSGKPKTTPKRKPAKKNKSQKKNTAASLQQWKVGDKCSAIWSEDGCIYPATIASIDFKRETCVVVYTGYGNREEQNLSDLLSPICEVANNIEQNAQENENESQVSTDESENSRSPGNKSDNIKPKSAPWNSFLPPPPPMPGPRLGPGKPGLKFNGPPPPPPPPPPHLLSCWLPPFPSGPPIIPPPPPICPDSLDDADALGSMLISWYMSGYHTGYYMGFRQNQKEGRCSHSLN
UniProt Q9UHI6: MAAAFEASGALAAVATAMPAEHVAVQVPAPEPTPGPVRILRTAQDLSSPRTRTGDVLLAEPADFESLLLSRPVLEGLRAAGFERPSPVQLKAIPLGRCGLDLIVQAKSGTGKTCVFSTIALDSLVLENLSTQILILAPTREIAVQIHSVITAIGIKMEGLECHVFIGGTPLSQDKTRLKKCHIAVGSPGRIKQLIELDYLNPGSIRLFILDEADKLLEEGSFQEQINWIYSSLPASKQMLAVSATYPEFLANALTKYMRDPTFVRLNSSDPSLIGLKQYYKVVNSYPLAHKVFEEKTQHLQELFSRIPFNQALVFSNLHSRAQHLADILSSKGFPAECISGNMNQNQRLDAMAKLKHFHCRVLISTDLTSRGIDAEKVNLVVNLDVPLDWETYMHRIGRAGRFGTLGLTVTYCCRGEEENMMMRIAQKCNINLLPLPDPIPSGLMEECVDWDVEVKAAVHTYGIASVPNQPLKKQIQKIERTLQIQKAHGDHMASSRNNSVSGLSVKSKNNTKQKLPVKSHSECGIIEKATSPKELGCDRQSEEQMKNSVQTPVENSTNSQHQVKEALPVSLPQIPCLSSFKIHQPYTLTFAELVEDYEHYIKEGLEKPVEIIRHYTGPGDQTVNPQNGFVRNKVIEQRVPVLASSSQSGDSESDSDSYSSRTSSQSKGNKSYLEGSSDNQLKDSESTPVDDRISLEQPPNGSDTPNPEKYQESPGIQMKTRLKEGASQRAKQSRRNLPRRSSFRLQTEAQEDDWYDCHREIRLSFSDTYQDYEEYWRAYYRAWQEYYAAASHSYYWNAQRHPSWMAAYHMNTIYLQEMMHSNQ
UniProt O96028, residues 782-1365: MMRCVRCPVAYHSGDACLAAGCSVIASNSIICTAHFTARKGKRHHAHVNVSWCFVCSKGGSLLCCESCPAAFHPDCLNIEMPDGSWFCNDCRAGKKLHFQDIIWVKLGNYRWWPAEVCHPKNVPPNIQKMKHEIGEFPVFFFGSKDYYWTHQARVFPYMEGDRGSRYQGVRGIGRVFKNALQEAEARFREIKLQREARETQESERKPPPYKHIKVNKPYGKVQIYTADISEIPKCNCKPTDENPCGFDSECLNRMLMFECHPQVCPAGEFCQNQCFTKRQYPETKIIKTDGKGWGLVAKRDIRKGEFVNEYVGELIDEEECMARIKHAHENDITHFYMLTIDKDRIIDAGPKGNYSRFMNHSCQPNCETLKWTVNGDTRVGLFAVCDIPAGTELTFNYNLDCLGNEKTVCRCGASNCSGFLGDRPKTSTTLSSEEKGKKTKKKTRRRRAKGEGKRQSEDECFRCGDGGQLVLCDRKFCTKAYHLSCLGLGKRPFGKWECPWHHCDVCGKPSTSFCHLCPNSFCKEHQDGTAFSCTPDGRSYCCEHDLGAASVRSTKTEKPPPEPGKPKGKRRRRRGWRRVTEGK

These are yes or no findings as the source states them, for the method shown. In cells and extracts the contact can be indirect. Some binding calls cover weakened binding; strength is not graded here.

The target of assay [1] is Gem-associated protein 5 (human (endogenous in H929)) (UniProt Q8TEQ6). As to the kind of experiment: co-IP; untransduced H929 lysate in RSB buffer (100 mM NaCl, 2.5 mM MgCl2, 0.1% NP40, 10 mM Hepes pH 7.4); IP with 2 µg anti-GEMIN5, anti-SMN or normal mouse IgG, 2 hours at 4°C, Protein G magnetic beads; western blot. For orientation: Immunoblotting shows a protein as a band on a membrane.

For assay [2], the target named is Survival motor neuron protein (human (endogenous in H929)) (UniProt Q16637). The description is as above.

In the case of “Probable ATP-dependent RNA helicase DDX20 (from UniProt Q9UHI6 1-824)”, the binding result in assay [1] and in assay [2] was “binds” throughout.

With “endogenous REIIBP (from UniProt O96028-4 1-584)”, the binding result in assay [1] and in assay [2] was “binds” in each case.
